Test results: patent US20090220470A1
No constants are given. Whether binding was seen depends on the method and setting. Some binding calls cover weakened binding; strength is not graded here. Tags and fused reporters may be left off the sequences shown.

Legend:
[1] = target: K63 tetra-ubiquitin (Boston Biochem) (UniProt P0CG48); experiment: SPR (BiaCore), K63 tetra ubiquitin covalently attached to a CM5 chip, GST-p62 UBA fusion injected; sensorgrams normalized for analyte molecular weight
[2] = target: K63 tetra-ubiquitin (Boston Biochem) (UniProt P0CG48); experiment: SPR (BiaCore), K63 tetra ubiquitin covalently attached to CM5 chip, GST fusion injected
[3] = target: Mono-ubiquitin (Sigma Aldrich) (UniProt P0CG48); experiment: SPR (BIACORE 3000), GST-p62 UBA polypeptide captured on anti-GST chip, ubiquitin injected

binding [1]: binds
binding [2]: binds
binding [3]: binds
B1: p62×1 (one only p62-UBA domain GST fusion) (protein, not shown: a dimerising Fc or GST; small tags and cut ends)
chain: PRLIESLSQMLSMGFSDEGGWLTRLLQTKNYDIGAALDTIQYSKHPGGGVEGGG
